Results on two molecules are retold here after publication PMC4742162.

Protein sequences, listed by entry. Tags and fused reporters are not part of them.
UniProt O95922: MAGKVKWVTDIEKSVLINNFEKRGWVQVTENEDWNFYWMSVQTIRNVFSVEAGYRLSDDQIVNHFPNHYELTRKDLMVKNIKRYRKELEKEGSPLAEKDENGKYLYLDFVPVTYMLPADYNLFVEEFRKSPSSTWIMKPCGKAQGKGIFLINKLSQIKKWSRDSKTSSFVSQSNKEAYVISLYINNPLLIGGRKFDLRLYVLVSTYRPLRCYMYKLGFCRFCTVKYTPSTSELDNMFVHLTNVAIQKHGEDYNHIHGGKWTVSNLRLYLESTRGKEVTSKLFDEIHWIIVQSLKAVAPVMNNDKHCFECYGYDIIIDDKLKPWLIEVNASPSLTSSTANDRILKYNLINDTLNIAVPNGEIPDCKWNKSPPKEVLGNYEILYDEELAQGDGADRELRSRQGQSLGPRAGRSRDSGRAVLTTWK

Results are given in words; binding and its absence hold for the method and conditions named. Binding seen in cells or lysates may run through a third protein. Some entries that bind do so weakly or less than the wild type. For some of these results: Tags and fused reporters may be left off the sequences shown.

In experiment [1] the target is T1, YFP-tagged SEPT2 (UniProt Q15019).
T1 sequence: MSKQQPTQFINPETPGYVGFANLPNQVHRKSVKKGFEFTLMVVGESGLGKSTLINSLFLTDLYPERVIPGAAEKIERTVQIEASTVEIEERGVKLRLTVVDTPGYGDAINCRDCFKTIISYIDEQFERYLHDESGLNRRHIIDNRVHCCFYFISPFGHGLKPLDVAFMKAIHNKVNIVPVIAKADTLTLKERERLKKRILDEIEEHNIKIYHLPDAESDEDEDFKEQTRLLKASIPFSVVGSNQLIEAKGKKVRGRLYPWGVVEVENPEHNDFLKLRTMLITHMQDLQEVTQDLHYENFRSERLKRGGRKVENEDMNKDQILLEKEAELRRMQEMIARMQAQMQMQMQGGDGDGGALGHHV
The experiment in a line: co-IP; MT fractions (MTs depolymerized by calcium) of transfected Tr cells incubated with anti-GFP/YFP-coated beads (GFP Trap_M); 10 mM Tris pH 7.5, 150 mM NaCl, 5 mM EDTA, 1% CHAPS; 4°C, 16 h; last two washes at 300 mM salt; immunoblot. For orientation: Immunoblotting shows a protein as a band on a membrane.

Experiment [2] has as its target T2, endogenous SEPT2 (human (endogenous in MDA-MB 231)) (UniProt Q15019).
T2 sequence: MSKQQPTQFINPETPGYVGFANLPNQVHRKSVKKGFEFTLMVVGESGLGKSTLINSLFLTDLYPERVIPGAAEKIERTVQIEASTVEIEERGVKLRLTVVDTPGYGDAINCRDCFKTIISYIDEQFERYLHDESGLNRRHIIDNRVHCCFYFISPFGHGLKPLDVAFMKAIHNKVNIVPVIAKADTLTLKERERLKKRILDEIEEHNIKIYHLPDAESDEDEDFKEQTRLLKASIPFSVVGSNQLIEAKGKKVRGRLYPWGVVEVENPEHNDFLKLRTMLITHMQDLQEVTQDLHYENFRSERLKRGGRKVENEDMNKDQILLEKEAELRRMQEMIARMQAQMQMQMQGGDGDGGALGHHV
The experiment in a line: co-IP; MT fractions of Tr cells incubated with rabbit anti-SEPT2 antibody on protein G sepharose beads (non-specific serum as control); 10 mM Tris pH 7.5, 150 mM NaCl, 5 mM EDTA, 1% CHAPS; 4°C, 16 h; last two washes at 300 mM salt; immunoblot.

Experiment [3] has as its target T1, YFP-tagged SEPT2. The experiment in a line: condition: only in Ts cells (septin filaments not associated with MTs); co-IP; MT fractions of transfected Taxol-sensitive (Ts) cells incubated with anti-GFP/YFP-coated beads (GFP Trap_M); same buffer and washes as for Tr cells; immunoblot.
The target in experiment [4] is T3, YFP-tagged TTLL11 (UniProt A4Q9F4).
T3 sequence: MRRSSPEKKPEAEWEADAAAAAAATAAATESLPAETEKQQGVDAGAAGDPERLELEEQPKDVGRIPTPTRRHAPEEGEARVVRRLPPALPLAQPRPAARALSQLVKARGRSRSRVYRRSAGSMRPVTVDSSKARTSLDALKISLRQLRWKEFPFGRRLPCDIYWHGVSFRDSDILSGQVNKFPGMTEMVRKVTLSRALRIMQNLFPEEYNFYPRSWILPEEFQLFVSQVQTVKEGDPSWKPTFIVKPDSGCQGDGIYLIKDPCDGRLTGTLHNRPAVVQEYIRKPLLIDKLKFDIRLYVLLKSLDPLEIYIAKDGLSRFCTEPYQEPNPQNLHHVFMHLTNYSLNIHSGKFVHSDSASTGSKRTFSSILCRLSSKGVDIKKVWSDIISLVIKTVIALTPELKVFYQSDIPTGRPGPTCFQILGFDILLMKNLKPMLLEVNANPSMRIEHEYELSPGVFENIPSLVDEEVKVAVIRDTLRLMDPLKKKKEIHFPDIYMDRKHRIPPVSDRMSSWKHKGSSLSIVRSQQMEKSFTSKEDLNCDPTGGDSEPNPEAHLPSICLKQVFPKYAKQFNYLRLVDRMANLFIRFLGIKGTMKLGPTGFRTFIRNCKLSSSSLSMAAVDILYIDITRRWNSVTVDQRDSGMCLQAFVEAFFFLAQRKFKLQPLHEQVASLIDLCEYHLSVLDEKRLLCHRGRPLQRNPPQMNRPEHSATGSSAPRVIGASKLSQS
The experiment in a line: co-IP; MT fractions (MTs depolymerized by calcium) of transfected Tr cells incubated with anti-GFP/YFP-coated beads (GFP Trap_M); 10 mM Tris pH 7.5, 150 mM NaCl, 5 mM EDTA, 1% CHAPS; 4°C, 16 h; last two washes at 300 mM salt; immunoblot.

In the case of “TTLL1 (from UniProt O95922 1-423) (enzyme)”, the binding entry is “binds” in experiment [1], “binds” in experiment [2] and “no binding” in experiment [3].

B1: V5-tagged SEPT9_i1 (protein, UniProt Q9UHD8 1-586)
chain: MKKSYSGGTRTSSGRLRRLGDSSGPALKRSFEVEEVETPNSTPPRRVQTPLLRATVASSTQKFQDLGVKNSEPSARHVDSLSQRSPKASLRRVELSGPKAAEPVSRRTELSIDISSKQVENAGAIGPSRFGLKRAEVLGHKTPEPAPRRTEITIVKPQESAHRRMEPPASKVPEVPTAPATDAAPKRVEIQMPKPAEAPTAPSPAQTLENSEPAPVSQLQSRLEPKPQPPVAEATPRSQEATEAAPSCVGDMADTPRDAGLKQAPASRNEKAPVDFGYVGIDSILEQMRRKAMKQGFEFNIMVVGQSGLGKSTLINTLFKSKISRKSVQPTSEERIPKTIEIKSITHDIEEKGVRMKLTVIDTPGFGDHINNENCWQPIMKFINDQYEKYLQEEVNINRKKRIPDTRVHCCLYFIPATGHSLRPLDIEFMKRLSKVVNIVPVIAKADTLTLEERVHFKQRITADLLSNGIDVYPQKEFDEDSEDRLVNEKFREMIPFAVVGSDHEYQVNGKRILGRKTKWGTIEVENTTHCEFAYLRDLLIRTHMQNIKDITSSIHFEAYRVKRLNEGSSAMANGMEEKEPEAPEM
As to B1, the binding entry in experiment [4] is “binds”.
